The source of these data is publication PMC3577733.

Results are given in words; binding and its absence hold for the method and conditions named. Where a sequence is shown, tags or fusion partners need not be part of it.

Experiment [1] concerns the target AaPYL9 (Artemisia annua ABA receptor orthologue), yeast two-hybrid fusion (Artemisia annua). Briefly: two-hybrid; yeast AH109, BD (pDEST32) and AD (pDEST22) constructs co-transformed; growth on SD/-T-L-H-A supplemented with 10 µM ABA.
For experiment [2] the target is unchanged. Briefly: two-hybrid; yeast AH109, BD (pDEST32) and AD (pDEST22) constructs co-transformed; growth on SD/-T-L-H and SD/-T-L-H-A without ABA.

B1: AtHAB2 (Arabidopsis HAB2), yeast two-hybrid fusion (enzyme, UniProt Q9LNP9 1-511)
chain: MEEISPAVALTLGLANTMCDSGISSTFDISELENVTDAADMLCNQKRQRYSNGVVDCIMGSVSEEKTLSEVRSLSSDFSVTVQESEEDEPLVSDATIISEGLIVVDARSEISLPDTVETDNGRVLATAIILNETTIEQVPTAEVLIASLNHDVNMEVATSEVVIRLPEENPNVARGSRSVYELECIPLWGTISICGGRSEMEDAVRALPHFLKIPIKMLMGDHEGMSPSLPYLTSHFFGVYDGHGGAQVADYCHDRIHSALAEEIERIKEELCRRNTGEGRQVQWEKVFVDCYLKVDDEVKGKINRPVVGSSDRMVLEAVSPETVGSTAVVALVCSSHIIVSNCGDSRAVLLRGKDSMPLSVDHKPDREDEYARIEKAGGKVIQWQGARVSGVLAMSRSIGDQYLEPFVIPDPEVTFMPRAREDECLILASDGLWDVMSNQEACDFARRRILAWHKKNGALPLAERGVGEDQACQAAAEYLSKLAIQMGSKDNISIIVIDLKAQRKFKTRS
Turning to B1, the binding result in experiment [1] and in experiment [2] was “no binding” each time.
